## Cleaved PARP after 72 h of treatment

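The test systems are human melanoma cell lines, treated with two drugs together for 72 h and then stained and imaged. The read-out is the fraction of cleaved-PARP-positive nuclei, in % of that fraction in the DMSO control; 200 means twice the control level of this apoptosis marker. Every drug was used at one fixed concentration, the higher of two screened. The file gives one value for each pair and line, without errors, so small differences may be noise. The marker varies much from line to line, for technical or biological reasons.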 An unselected part of the screen is shown. A dash means that no value is listed here.

All values are for the listed drug together with NVP-BEZ235 (0.02 µM): Cn1c(=O)n(-c2ccc(C(C)(C)C#N)cc2)c2c3cc(-c4cnc5ccccc5c4)ccc3ncc21

Drug key:
KU-0063794: COc1ccc(-c2ccc3c(N4CCOCC4)nc(N4C[C@@H](C)O[C@@H](C)C4)nc3n2)cc1CO at 0.1 µM
ZM336372: Cc1ccc(NC(=O)c2cccc(N(C)C)c2)cc1NC(=O)c1ccc(O)cc1 at 10 µM
tamatinib: COc1cc(Nc2ncc(F)c(Nc3ccc4c(n3)NC(=O)C(C)(C)O4)n2)cc(OC)c1OC at 2 µM
ENMD-2076: Cc1cc(Nc2cc(N3CCN(C)CC3)nc(/C=C/c3ccccc3)n2)n[nH]1 at 0.2 µM
SNS-032: CC(C)(C)c1cnc(CSc2cnc(NC(=O)C3CCNCC3)s2)o1 at 0.05 µM
dovitinib: CN1CCN(c2ccc3nc(-c4c(N)c5c(F)cccc5[nH]c4=O)[nH]c3c2)CC1 at 0.5 µM
cisplatin: N.N.[Cl][Pt][Cl] at 8 µM
pioglitazone: CCc1ccc(CCOc2ccc(CC3SC(=O)NC3=O)cc2)nc1 (configuration not stated) at 10 µM

Cell line,KU-0063794,ZM336372,cisplatin,SNS-032,ENMD-2076,dovitinib,tamatinib,pioglitazone
WM451Lu,160,104,52.9,264,130,39.1,727,90.3
A375,128,-,177,-,129,143,-,114
WM3526,81.0,146,150,229,156,72.8,137,118
MEL-HO,216,84.7,128,100,37.9,137,115,295
UACC-257,60.1,124,136,161,42.0,49.5,78.1,68.0
RPMI-7951,92.9,175,98.3,148,86.9,43.3,117,130
IPC-298,250,76.0,104,38.4,127,233,195,77.6
A101D,407,164,50.4,348,257,88.7,209,61.4
WM1745,-,95.1,91.9,79.7,146,142,272,-
COLO 800,202,82.0,59.2,77.3,175,53.9,251,90.2
UACC-62,274,174,286,171,266,196,164,139
LB2518-MEL,-,120,-,-,84.5,192,170,113
501mel,-,-,-,-,-,-,-,216
SK-MEL-30,192,61.1,92.0,227,127,109,80.2,230
LOX IMVI,210,192,307,137,134,126,424,95.4
SK-MEL-5,86.3,92.8,65.9,135,332,103,931,163
SK-MEL-2,77.3,116,103,-,253,376,69.4,92.6
COLO 792,73.4,16.2,111,190,268,200,787,29.4
COLO 829,70.1,103,164,165,335,135,120,98.2
A2058,131,106,153,88.3,106,547,207,147
C32,73.3,54.2,177,52.5,326,119,178,77.5
G-361,215,78.0,217,86.5,226,217,200,123
IST-MEL1,105,154,279,46.2,139,61.0,284,48.3
MeWo,59.2,48.0,72.0,81.5,59.9,86.1,75.3,73.4
MZ2-MEL,-,117,-,-,137,410,145,166
WM3619,120,124,163,103,139,147,310,121
SK-MEL-28,171,98.3,131,154,110,96.2,52.4,115
WM115,146,193,216,258,136,131,154,516
WM1716,149,34.6,62.8,42.9,123,105,293,81.9
RVH-421,277,105,46.5,153,75.6,138,141,240

From a melanoma drug combination screen (doi:10.1371/journal.pone.0140310); values rounded.